3 molecules from paper PMC7271195, “CX3CL1 homo-oligomerization drives cell-to-cell adherence” (Scientific Reports, 2020) can be followed below.

Protein sequences, listed by entry. Tags and fused reporters are not part of them. Lines headed by an entry give the natural chain unless they say otherwise; changes in a name come on top.
UniProt P49238: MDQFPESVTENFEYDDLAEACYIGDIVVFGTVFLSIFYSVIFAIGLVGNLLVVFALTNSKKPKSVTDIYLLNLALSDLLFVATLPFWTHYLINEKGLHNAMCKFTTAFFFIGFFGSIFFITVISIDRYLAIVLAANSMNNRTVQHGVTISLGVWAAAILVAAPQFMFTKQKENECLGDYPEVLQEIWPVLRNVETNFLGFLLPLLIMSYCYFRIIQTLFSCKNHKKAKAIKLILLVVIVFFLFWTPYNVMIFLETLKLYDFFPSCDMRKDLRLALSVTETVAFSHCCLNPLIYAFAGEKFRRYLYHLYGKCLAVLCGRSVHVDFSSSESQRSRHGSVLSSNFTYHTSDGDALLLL
UniProt P78423: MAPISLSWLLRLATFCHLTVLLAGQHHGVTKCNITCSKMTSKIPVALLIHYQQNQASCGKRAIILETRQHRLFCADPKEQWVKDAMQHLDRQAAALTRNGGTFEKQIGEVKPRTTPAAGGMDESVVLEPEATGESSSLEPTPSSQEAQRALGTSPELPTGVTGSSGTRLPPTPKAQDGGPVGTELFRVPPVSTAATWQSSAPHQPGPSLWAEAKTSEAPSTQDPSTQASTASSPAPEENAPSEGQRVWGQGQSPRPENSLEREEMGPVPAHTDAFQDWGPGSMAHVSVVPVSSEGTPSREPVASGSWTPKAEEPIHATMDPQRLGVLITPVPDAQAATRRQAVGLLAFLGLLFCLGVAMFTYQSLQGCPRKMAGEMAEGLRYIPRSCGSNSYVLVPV

These are yes or no findings as the source states them, for the method shown. Some entries that bind do so weakly or less than the wild type.

Test [1] addresses CX3CR1 on CHO cells (CHO_(CX3CR1)) (UniProt P49238). Description: LigandTracer (real-time binding of fluorescent ligand to coated cells); 100 nM CX3CL1-AF647 on coated CHO_(CX3CR1) cells in HHBSS, with 5 µM TM24, 1 µM unstained CX3CL1 or none; only the binder purified.
The target of test [2] is CX3CL1-EYFP fusion protein (transiently expressed in COS-7 cells) (UniProt P78423). Description: FRAP; CX3CL1-EYFP in live COS-7 cells, 37 °C; diffusion rate with or without 15 min preincubation with 3 or 10 µM TM24 or SCR24.
Test [3] shares this target. Put plainly: FRAP; synthetic peptide (3 or 10 µM, 15 min preincubation) added to live COS-7 cells expressing CX3CL1-EYFP, 37 °C; diffusion rate of CX3CL1-EYFP; only the binder purified.

With “fluorescent CX3CL1-AF647 (from UniProt P78423 25-341) (ligand)”, the binding result in test [1] was “binds”.

With “CX3CL1-EYFP fusion protein (transiently expressed in COS-7 cells) (from UniProt P78423 25-397)”, in test [2], the binding result was “binds”.

B1: TM24 peptide (transmembrane domain of CX3CL1 with two lysines at each end) (peptide)
peptide: KKVGLLAFLGLLFCLGVAMFTYKK
notes: two lysines added to ensure solubility; the 20 residues of the TM domain of CX3CL1; also called TM-CX3CL1 peptide; CX3CL1 transmembrane peptide; source: synthetic peptide
For B1, the binding entry in test [3] is “binds”.
